# Some of the results follow. Single values are uncertain, as repeats are few or missing.
# Test system: Saccharomyces cerevisiae BY4743
# Assay: growth (OD600) relative to untreated control; higher = less growth inhibition
# Conditions: compound concentration: 133 uM; 20 h
# Method: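 NMCCC compounds (133 uM, no IPBC) tested alone against Saccharomyces cerevisiae BY4743 in YPD, 96-well plates, starting OD600 ~0.1. Growth was read as OD600 at 20 h and expressed as % of the untreated control. Single pass.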
row,Compound,growth
1,Oc1cccc2ccc(/C=C/c3ccc(Br)o3)nc12,71.2%
2,CCOC(=O)c1c(C)oc2ncnc(NCc3ccccc3Cl)c12,83.9%
3,COC(=O)c1cc(S(=O)(=O)NCCc2sccc2C)c[nH]1,102%
4,CC\1(C)CC2=CC=CC=C2\C(=N1)CSC3=CC=CC=C3C(O)=O,107%
5,Cc1nc(C2(NC(=O)C(C)Oc3ccc(C#N)cc3)CCCCC2)no1 (configuration not stated),107%
6,COc1cc(OC)c(NC(=O)NC(C(=O)N2CCc3ccccc32)C(C)C)cc1Cl (configuration not stated),104%
7,CCOC(=O)c1ncn(-c2ccc(OC)cc2)c1N,98.4%
8,CN(C(=O)CSc1nnc(-c2cccnc2)o1)c1ccc(F)cc1,93.8%
9,N#Cc1ccc(CCC(=O)OCc2nnnn2-c2ccccc2)cc1,90.5%
10,CC1=CC=C(C=C1)C2(\N=C(Cl)/C(=C3/C=C\C=C/N23)C#N)C(F)(F)F (configuration not stated),103%
11,Cc1sc(NC(=O)CSc2ncnc3ccccc23)c(C#N)c1C,94.7%
12,CCN(CC)S(=O)(=O)c1ccc(Cl)c(NC(=O)COc2ncnc3sccc23)c1,102%
13,COC(=O)c1ccn(CC(=O)Nc2ccc(C)cc2C)n1,106%
14,CSc1nc(NCCN(C)C)c(C#N)c(-c2ccc(C(C)(C)C)cc2)n1,4.82%
15,CC(C(=O)[O-])n1c(Br)nc2c1c(=O)[nH]c(=O)n2C (configuration not stated),100%
16,CCN1CCC(N(Cc2cccc(OC)c2)C(=O)Nc2cc(F)ccc2F)CC1,106%
17,Cc1cc(NC(=O)CSCC(=O)OCc2ccc(-n3cccn3)cc2)no1,102%
18,CCOC(=O)CNC(=O)c1cc(Br)ccc1OCC(C)C,99.4%
19,CCOC(=O)N1CCN(CC1)C(=O)C2C\C(=N/O2)C3=CC=CC(=C3OC)OC (configuration not stated),107%
20,Cc1ccc(NC(=O)C(CC(C)C)NS(=O)(=O)c2ccc3c(c2)oc(=O)n3C)c(C)c1 (configuration not stated),95.8%
21,CC(C)CCNC(=O)c1cnn2c(C(F)(F)F)cc(-c3cccs3)nc12,94.2%
22,COC1=CC=C(NC(=O)CN2\C(=N/C3=C(C(=NO3)C)C2=O)C)C=C1OC,104%

# Some of these compounds in order of molar mass, descending.
row,Compound,growth
5,Cc1nc(C2(NC(=O)C(C)Oc3ccc(C#N)cc3)CCCCC2)no1 (configuration not stated),107%
3,COC(=O)c1cc(S(=O)(=O)NCCc2sccc2C)c[nH]1,102%
7,CCOC(=O)c1ncn(-c2ccc(OC)cc2)c1N,98.4%

# — the supplement of paper PMC8007513
